Reference: PubChem BioAssay AID2685 (National Center for Advancing Translational Sciences (NCATS), 2010)
The other results are listed elsewhere or left out. These are further read-outs of the screen, such as a control signal, another cell line or another target. No call is given for them. Most of these compounds were active or inconclusive in the main read-out, so they are no random draw. Words in brackets tell the shape of the fitted curve; partial curves, single points and poor fits give uncertain potencies.

Test: qHTS Assay for Lipid Storage Modulators in Drosophila S3 Cells;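 on cell number change: cells counted by Cell Tracker Red CMTPX staining in the red channel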
Settings: BODIPY lipid droplet fluorescence, 18-24 h; for cell number change: measured here: cell count max response, cells fed with added oleic acid
How it was run: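 Drosophila S3 cells got compounds at several concentrations plus oleic acid (400 uM solution). Laser-scanning cytometry with 488 nm excitation read lipid droplets at 500-530 nm and cells at 575-640 nm. Percent activity was relative to 20 uM Triacsin C.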

[1] = measured here: lipid fluorescence (Fed channel) AC50, cells fed with added oleic acid
[2] = measured here: cell number channel AC50, cells fed with added oleic acid

Structure (SMILES)	AC50 [1]	cell number change [%]	AC50 [2]
CC1CCN(c2ccc3nnc(CCC(=O)NC(C)C)n3n2)CC1	0.00517 µM [rising, full curve, poor fit]		
COC(=O)/C(=C\Nc1cccc(Cl)c1C)c1ncc(C(F)(F)F)cc1Cl	0.411 µM [rising, single point]		
C/C=C/C(=O)OCC(=O)Nc1ccccc1Br		36.1	
COc1cccc(N2CCN(c3nc(C)c(C)c(=O)[nH]3)CC2)c1	6.51 µM [falling, single point]	-5.77	
COC(=O)c1cc(NC(=O)c2ccc([N+](=O)[O-])cc2)c(=O)oc1C	6.51 µM [falling, single point]	-23	
CCOC(=O)COc1ccc2c(C#N)c3ccccn3c2c1	23.1 µM [rising, partial curve, poor fit]	53.1	23.1 µM [rising, partial curve, poor fit]
COc1ccccc1-c1cc(C(F)(F)F)c(C#N)c(=O)[nH]1		-52.6	
CC1CCN(C2=C(NS(=O)(=O)c3ccc(Br)cc3)C(=O)c3ccccc3C2=O)CC1	0.517 µM [falling, partial curve, poor fit]	-7.46	
O=C(Nc1ccccc1)Nc1ccc(Oc2ncnc3cc(Cl)ccc23)nc1		5.81	
O=C1C(Cl)=C(NCC2CCCO2)C(=O)N1c1ccccc1 (centres undefined)	29.1 µM [falling, single point]	-26.2	
Cc1nn(-c2ccccn2)c2c1-c1nc(N)ncc1CC2		6.15	
COc1ccc(C=Nc2ccc3[nH]ncc3c2)c(O)c1	29.1 µM [falling, single point]	-20.7	
CCOc1cc(-c2noc(CCCC(N)=O)n2)cc(Br)c1OC	6.51 µM [rising, single point]	-1.1	
O=C(Cn1c(=O)oc2cc(S(=O)(=O)N3CCCC3)ccc21)N1CCN(c2ccccc2)CC1	0.13 µM [rising, full curve, poor fit]	-5.74	
CCCn1c(SCC(=O)NCc2ccco2)nc2c1c(=O)n(C)c(=O)n2C		99.7	
O=C(CNC(=O)c1ccccc1Br)NCCSc1ccc(Br)cc1		-25	6.51 µM [rising, single point]
CCOC(=O)NNc1ccc2nonc2c1[N+](=O)[O-]	29.1 µM [falling, single point]	-40.5	29.1 µM [falling, single point]
CCN1CCN(c2cc(C)c3cc(NC(=O)c4ccc(C)c(C)c4)ccc3n2)CC1	0.184 µM [rising, full curve, poor fit]		
COc1ccc(NC(=O)Cc2nnc(SCC(=O)c3ccc(F)cc3)n2C)cc1	29.1 µM [falling, single point]	5.22	
Cc1nn(C)c(C(=O)Nc2ccn(C34CC5CC(CC(C5)C3)C4)n2)c1[N+](=O)[O-]	2.06 µM [falling, full curve, poor fit]	-19.7	0.0517 µM [falling, full curve, poor fit]
O=C(Nc1cc(S(=O)(=O)N2CCOCC2)ccc1N1CCOCC1)c1cccs1		-43.7	29.1 µM [falling, single point]
Cc1nc2ccccn2c1C(=O)NCc1ccc2c(c1)OCO2	1.3 µM [rising, partial curve]	-2.54	0.731 µM [rising, full curve, poor fit]
CCOC(=O)/C=C/C(=O)Nc1ccc(S(=O)(=O)N2CCCCCC2)cc1			0.13 µM [falling, full curve, poor fit]
O=C(NCCc1ccccc1F)C1CCC(=O)N(Cc2ccccc2F)C1 (centres undefined)	29.1 µM [rising, single point]	-2.55	
Cc1ccc(N2C(=O)N(CC(=O)Nc3ccc(C)cc3C)C(=O)C2C)cc1 (centres undefined)		13	0.092 µM [rising, full curve, poor fit]
COCCNC(=S)N1CCN(c2cccc(C(F)(F)F)c2)CC1	0.58 µM [falling, full curve]	22.1	
CC1(C)Cc2cccc(OCC(=O)Nc3cccnc3Cl)c2O1	0.0651 µM [rising, partial curve, poor fit]	-4.07	
CCC(C)[C@H]1CNCCN1CCc1cc(C(F)(F)F)cc(C(F)(F)F)c1 (some centres undefined)	0.731 µM [falling, partial curve, poor fit]	-46.8	5.8 µM [falling, full curve]
C=CCNc1nc(S(=O)Cc2ccc(C)cc2)nc2c1CCCC2 (centres undefined)	0.259 µM [rising, partial curve, poor fit]	37.9	

Two entries from above, with bars between the fields.
Structure (SMILES) | AC50 [1] | cell number change [%] | AC50 [2]
CCCn1c(SCC(=O)NCc2ccco2)nc2c1c(=O)n(C)c(=O)n2C |  | 99.7 | 
O=C(CNC(=O)c1ccccc1Br)NCCSc1ccc(Br)cc1 |  | -25 | 6.51 µM [rising, single point]
